The values that follow come from PubChem BioAssay AID1347423 (Functional Genomics Laboratory (NCATS/FGL), 2020).

The whole screen tested about 52,000 sequences, of which about 210 (0.4%) were called active.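 Rule for the calls: active = gene whose silencing raises cell survival under the drug, median off-target-corrected z-score across its silencing RNAs 2 or more; inactive = the rest.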 Some of the results follow.

The experiment can be described thus: Resistance to Poly (ADP-Ribose) Polymerase inhibitor: Gene Identification via Genome-wide siRNA Screen. The conditions noted are these: mouse BRCA2 R2336H ES cells, olaparib, CellTiter-Glo viability; stronger effect = higher value. In a few lines:
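Genome-wide siRNA screen (3 siRNAs/gene, 20 nM) in mouse ES cells carrying hypomorphic BRCA2 R2336H; olaparib 500 nM added 48 h post-transfection, CellTiter-Glo viability 72 h later. Normalized to plate-median negative control; MAD z-scores, gene median, seed-adjusted.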
Background: ATP-based viability assays read luminescence as a measure of living cells.
With GGAAAAGAAGCUACGCUUGTT against Rnu3ip2, the z-score was inactive: -0.829.

Take “GCCAUGAAUAUUGUGCGAATT against 0610007P06Rik”: the z-score was inactive: -0.158.

On to GGGUUUUUGUCAAAUCUGUTT against Ttc5, for which the z-score is inactive: -0.694.

In the case of UAGCCAUCGCUCUUUCUUATT against Olfr594, the z-score is inactive: -0.973.

Take CGUGAUGUUUCGGAAGACATT against Grtp1: the z-score is inactive: 0.103.

In the case of GGUGAUUCAGUUCAAAGUATT against U2af1-rs1, the z-score is inactive: 0.0757.

Turning to GCUUUUGAUCCACAGAUUUTT against Prss33, the z-score was active: 2.34.

For GGUAGUCUGAACACUCUAATT against BC008103, the z-score is inactive: -1.56.

With GCUGUGUAGUGUGCUAUUUTT against Slc6a15, the z-score is inactive: -2.37.

On to “GGGUUGAACCUAUGUCAUCTT against 8030466O12Rik”, for which the z-score was inactive: 1.38.

As to GCUCACCACUUUUAAAACATT against Hectd2, the z-score is inactive: 0.53.

As to GGCAGUAAGAAAGGUUCAATT against Btk, the z-score is inactive: -0.171.

Take “GGGCUGUGUAUCAAAACAUTT against 5630401J11Rik”: the z-score was inactive: 1.44.

Regarding GUAUCCUUCACAACUGUCUTT against Olfr786, the z-score is inactive: -0.967.

With “AGCUCAUUUACAAGUGAGGTT against 1700073E17Rik”, the z-score was inactive: 0.513.

On to GGUCAAAACUGCUCUGCACTT against Lepr, for which the z-score was inactive: 0.452.

For the sequence GGAGCAUGGAACAAUAAUATT against Fli1, the z-score was inactive: -0.299.

For GGACGAGGAGUACGAGCAATT against Nfkbia, the z-score was inactive: -0.4.

Take GGAUGCAUCUAAGGAUAAGTT against Gna13: the z-score was inactive: -0.156.

As for CGGUGGUAGAUGAGAUGUUTT against Ap2s1, the z-score was inactive: -1.66.

As to CGUUCAUUUCUAAUGGAAATT against Fkbp14, the z-score was inactive: 0.965.

In the case of GGACAAAGAAGAUUCCAUUTT against Ctps2, the z-score was inactive: 0.21.

In the case of GGAAAAACCGUCCAGAUCCTT against Umpk, the z-score is inactive: 0.0852.

Take GAGUGCAUUCUUUUGGCAUTT against Olfr5: the z-score was inactive: -0.738.

Turning to GGUAGAACCUAGAAGAGAGTT against BC024955, the z-score was inactive: 0.676.

As for GGCACAAGGCAACUGACUATT against Atp2a1, the z-score is inactive: -1.24.

Turning to CAAGGACGGGCUUCUAGUUTT against V1rh2, the z-score is inactive: 1.88.

Regarding “GCAGGCUUAAUGAAUUCUATT against 6230416J20Rik”, the z-score was inactive: -1.08.

Take “CCGUACGAUGAUAAUACCATT against 3110037K17Rik”: the z-score is inactive: 0.126.

CUCUCGAACAAUCAACCACTT against Olfr315: the z-score is inactive: -0.314.

In the case of GCUGAACCUGCAGCACAUCTT against Ubie, the z-score is inactive: 0.253.

In the case of “CGGAGUCAAAUUGUAUAAATT against 1810018L02Rik”, the z-score was inactive: -0.376.

Consider GAGCUGAAGAAGUGCUCUUTT against Rarres2, for which the z-score was inactive: 0.774.

With GAAGCUGUUGCUACUGGACTT against Tifp39, the z-score was inactive: 0.346.

Regarding “GGCAGUACAACUGGUCUACTT against 0610040J01Rik”, the z-score is inactive: 0.0523.

Take CCGAAUGUGCCUUUAAGAATT against Sema4a: the z-score is inactive: -0.388.

As to GCAGGCCUACCUUACCCUATT against Adam32, the z-score is inactive: -1.54.

Consider CGCUCUAGGAAAACAAUGUTT against AV071179, for which the z-score is inactive: -2.02.

With CCACACUGCAGUGUCAGAATT against Olfr490, the z-score is inactive: -0.574.

Consider “GCAUUUUGCUUACUUACUGTT against 9530046H09Rik”, for which the z-score was inactive: 1.63.

For the sequence GGUUAAUGCCCGAUGAAGGTT against Gdap1, the z-score was inactive: -0.71.

On to GGUCACGAUGUAGCACGCUTT against Gm169, for which the z-score is inactive: 2.01.

With GGUAGUGUGAUCAAGACACTT against Spred2, the z-score is inactive: 1.27.

As to “GGUGCAGUCCUCCAGAAUUTT against 3110056O03Rik”, the z-score is inactive: -1.12.

Turning to “GGGACCUGAUCAUAAACUATT against 5830442J12Rik”, the z-score is inactive: -0.445.

Turning to CCCUUUAAUACAUACAGUUTT against Mesp2, the z-score is inactive: 1.05.

Consider GGACAGGAAAAUACUCAGATT against Cml5, for which the z-score is inactive: -0.229.

Take CCACUUUUGUAAUGGAAGCTT against BC024997: the z-score is inactive: 0.517.

Regarding GGCCUAUGUCAGCACUUUATT against Eif3s5, the z-score is inactive: -2.81.

With GCGCAAAGAAGUGACUUCATT against Txln, the z-score is inactive: -2.78.

Regarding GGAGUCUUAAAAGCAAAGATT against Serpinb11, the z-score was inactive: -0.108.

For “GGAGCUCAAGGAAGAGUACTT against 2600017H08Rik”, the z-score was inactive: -1.99.

CGGAUAUUUGGCAUGGUCCTT against Slc5a4b: the z-score is inactive: 0.735.

For GGCAACAACACAUUCAGAGTT against Enah, the z-score is inactive: -0.601.

Consider GGAUGUUAUUCGCCACGCGTT against Znf335, for which the z-score was inactive: 2.38.

For the sequence GGGAUUUGCUGUGAGAAUUTT against Fin15, the z-score is inactive: -0.463.

Consider GGGCGAUUAUCUGUGGAAATT against Syt14l, for which the z-score is inactive: -0.0776.

On to CGUGUGUUACUUCUCAGACTT against Crtam, for which the z-score is inactive: 0.911.

Regarding “GGAAGAGAAUGAAAUGUACTT against 6530403A03Rik”, the z-score is inactive: 1.8.

Turning to GGUCCUCAAGCUCAUGGAUTT against Lzf, the z-score was inactive: 1.72.

Take GGGAGAAAUUCUGUAUUCATT against Aldh5a1: the z-score is inactive: 3.07.

With GCUCUAUCGAAUCAUAUUATT against Pdzk6, the z-score was inactive: -1.36.

In the case of “GCCCAGUGAUUGGAAACGATT against 1810061M12Rik”, the z-score is inactive: 0.132.

For GGAUACAUUAAUUGUUUGGTT against AW011752, the z-score was inactive: 0.68.

GCAAGUGAGUUAGCAGUCATT against Atp2c1: the z-score was inactive: -0.615.

Regarding “GGAAAAUCCCUGUGUCCGATT against 4930451F05Rik”, the z-score was inactive: 2.07.

GGAGCUGUCUCUACGAAACTT against Myoz3: the z-score is inactive: -0.55.

For GGAUUUGUGUCCAUCGUGCTT against Olfr66, the z-score was inactive: -0.179.

GGUCAUUUCCUUCGCUGGATT against Olfr739: the z-score is inactive: 2.

With GGUUCCUACGCUUCAUUCCTT against Cntnap4, the z-score was inactive: 0.19.

Regarding CCUUCUAGUGCAUCAGUGGTT against Olfr890, the z-score was inactive: 0.382.

For the sequence GCGACUGAGUGACUAUGCUTT against Kcnn3, the z-score is inactive: 0.138.

Turning to GCCGAUGAAGCCUUAUUGCTT against Bfsp1, the z-score is inactive: 1.5.

As for GGAACCUCUCCUGAUCACCTT against BC026374, the z-score was inactive: -0.676.

Regarding GAUCUUGGUUAUUCUACAUTT against Olfr1047, the z-score is inactive: -1.09.

CCUGGACAACCAACACUUATT against Pex13: the z-score was inactive: 1.33.

As to “GGCUAUGUAGAUGGUUUUGTT against B830017H08Rik”, the z-score was inactive: 1.72.

Turning to GGAUUUGGCCAACUCACCCTT against Acpp, the z-score was active: 0.16.

With “GGCACAAAAGAAGAAGAUGTT against 0610039N19Rik”, the z-score was inactive: 0.834.

Consider “GGUGCAGAGGAUCUACUAATT against 2700055A20Rik”, for which the z-score is inactive: -2.6.

GGACCUACAGCAUGGUAACTT against Pex3: the z-score was inactive: -2.07.

CCAAUCAUGUGGAUAUUUATT against Syngr3: the z-score is inactive: 0.403.

Turning to GGACAAGAUGGUGUCUAUCTT against Olfr1396, the z-score is inactive: -1.81.

Take CCUAGACAAAGUUUCAAACTT against Xrcc4: the z-score was inactive: 0.484.

For GGGACAAGUGACUGAAUUGTT against Dio3, the z-score is inactive: 0.877.

As for GGUGAUUGUCAAGAUUAUGTT against Olfr651, the z-score was inactive: -1.01.

As for GGGCCUAUCUGAAAGUUUATT against Nrm, the z-score was inactive: 0.622.

As for “GGAUUAAUCUGUGGAACUUTT against 2900026H06Rik”, the z-score is inactive: 0.736.

For GCAACAUAAAAGAUUCUUGTT against Il1f5, the z-score is inactive: -0.249.

Regarding GGCAUCGUAGGAUUUUUUGTT against Mtch2, the z-score is inactive: 1.42.

Take “GCUCCUAAAAAGGCUCUUUTT against Hist2h2aa1”: the z-score is inactive: 0.0504.

Take GGAUUUGUAGUUCAUCUCATT against Olfr77: the z-score is inactive: -0.394.

With GGGUUCAAGAAAUGAUAAUTT against F11, the z-score is inactive: 0.329.

As for “GGCGAUGAUCCGAAAACAGTT against 4831417L10”, the z-score was inactive: -0.297.

For the sequence “GGCAGAGAUGGAGUUGGUCTT against 4933429I20Rik”, the z-score was inactive: -0.739.

For “GCCGUGGAGGCUAAAAUCCTT against D5Ertd135e”, the z-score was inactive: 1.39.

On to GGAAGAUGGAUUGUUUCUUTT against F5, for which the z-score was inactive: 2.

As for “GGAAUGUACCAGAAAUACUTT against 4921504E06Rik”, the z-score is inactive: -0.216.

Take GGCUGUUUGUUGUGUUUAATT against Drbp1: the z-score was inactive: -0.849.

On to GGAUAGACUGGACAGCAGCTT against Retn, for which the z-score was inactive: 0.0248.

Take UCGACUACCUUUGAGUCAGTT against Hoxa4: the z-score was inactive: 0.129.

Consider “GUUUCAAGUAUGUUCUGCATT against A430072C10Rik”, for which the z-score was inactive: -1.68.

For the sequence GGUGAUCUUCAAAUUGGAGTT against Zfp90, the z-score is inactive: -0.401.

For GGAAUUACGAAGCUGUGUGTT against Cdkl3, the z-score is inactive: -0.366.
